Data reported in patent publication US20160151444A1, “METHODS FOR THE PREVENTION OR TREATMENT OF VESSEL OCCLUSION INJURY” (Stealth Peptides International, Inc., priority 2009, published 2016).

Test system: New Zealand white rabbits
Test: Rabbit model of acute myocardial ischemia and reperfusion (coronary occlusion), infarct size by histomorphometry
Assay type: in vivo
Settings: peptide group versus placebo group
Method: New Zealand white rabbits were used in this study. The rabbits were males and >10 weeks in age. Environmental controls in the animal rooms were set to maintain temperatures of 61° to 72° F. and relative humidity between 30% and 70%. Room temperature and humidity were recorded hourly, and monitored daily. There were approximately 10-15 air exchanges per hour in the animal rooms. Photoperiod was 12-hr light/12-hr dark (via fluorescent lighting) with exceptions as necessary to accommodate dosing and data collection. Routine daily observations were performed. Harlan Teklad, Certified Diet (2030C), rabbit diet was provided approximately 180 grams per day from arrival to the facility. In addition, fresh fruits and vegetables were given to the rabbit 3 times a week.
The peptide D-Arg-2′6′-Dmt-Lys-Phe-NH2 (sterile lyophilized powder) was used as the test article. […]
In all cases, treatments were started approximately 10 min after the onset of a 30 min ischemic insult (coronary occlusion) and continued for up to 3 h following reperfusion. In all cases, cardiovascular function was monitored both prior to and during ischemia, as well as for up to 180 min (3 h) post-reperfusion. The experiments were terminated 3 h post-reperfusion (end of study); irreversible myocardial injury (infarct size by histomorphometery) at this time-point was evaluated, and was the primary-end-point of the study. […]

Question: How did the “AR/LV, % versus placebo” value turn out when “D-Arg-2′,6′-Dmt-Lys-Phe-NH2 [D-Arg-2′6′-Dmt-Lys-Phe-NH2]” was run?
Answer: The value was 6 ± 3%.
